Values of other authors, collected in patent publication US20230414654A1, “METHODS OF TREATING COPPER METABOLISM-ASSOCIATED DISEASES OR DISORDERS” (Alexion Pharmaceuticals, Inc., priority 2020, published 2023).
At least one compound was matched to its structure with a doubt left.

Legend:
[1] = cited from earlier work
[2] = cited from earlier work; remark: listed apart in the source
[3] = cited from earlier work; remark: listed apart in the source

[Zn] [Zinc, zinc]
No: Binding to Cu in hepatic tissue [1] | Binding to Cu in the blood [2] | Impact on CNS [3]
